The other results are listed elsewhere or left out.
Experiments:
Assay in all cases: log2 fold change, soluble protein after heating vs DMSO (PISA); higher = thermal stabilisation; K562 cells, 10 uM, 30 min; active = over 0.2 and 3.5 SD of the protein, either way, in both replicates (recomputed)
[1] = compound: C1=CC=C(C=C1)[C@H](COC2=CC3=C(C=C2)NC(=O)N3)NC(=O)C4=CC=CN(C4=O)CC5=CC(=C(C=C5)F)F
Procedure, shortened: (§1)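 K562 cells (2×10^6 cells/mL) were treated with 10 μM compound for 30 min, and aliquots were heated for 3 min over 48°C-58°C. Pooled aliquots were extracted in PBS with 0.5% NP-40 at 4°C, and the supernatant after 21,000xg for 90 min was measured by TMTpro 16plex LC-MS/MS with channel sums equalised. Reported thermal stability, relative to control samples and from duplicates, is a log2 fold change.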

Sequences of proteins named here, by UniProt entry; tags and fusion partners are left off. A change or cut given only in a name is not applied to a line headed by its entry.
UniProt Q15029: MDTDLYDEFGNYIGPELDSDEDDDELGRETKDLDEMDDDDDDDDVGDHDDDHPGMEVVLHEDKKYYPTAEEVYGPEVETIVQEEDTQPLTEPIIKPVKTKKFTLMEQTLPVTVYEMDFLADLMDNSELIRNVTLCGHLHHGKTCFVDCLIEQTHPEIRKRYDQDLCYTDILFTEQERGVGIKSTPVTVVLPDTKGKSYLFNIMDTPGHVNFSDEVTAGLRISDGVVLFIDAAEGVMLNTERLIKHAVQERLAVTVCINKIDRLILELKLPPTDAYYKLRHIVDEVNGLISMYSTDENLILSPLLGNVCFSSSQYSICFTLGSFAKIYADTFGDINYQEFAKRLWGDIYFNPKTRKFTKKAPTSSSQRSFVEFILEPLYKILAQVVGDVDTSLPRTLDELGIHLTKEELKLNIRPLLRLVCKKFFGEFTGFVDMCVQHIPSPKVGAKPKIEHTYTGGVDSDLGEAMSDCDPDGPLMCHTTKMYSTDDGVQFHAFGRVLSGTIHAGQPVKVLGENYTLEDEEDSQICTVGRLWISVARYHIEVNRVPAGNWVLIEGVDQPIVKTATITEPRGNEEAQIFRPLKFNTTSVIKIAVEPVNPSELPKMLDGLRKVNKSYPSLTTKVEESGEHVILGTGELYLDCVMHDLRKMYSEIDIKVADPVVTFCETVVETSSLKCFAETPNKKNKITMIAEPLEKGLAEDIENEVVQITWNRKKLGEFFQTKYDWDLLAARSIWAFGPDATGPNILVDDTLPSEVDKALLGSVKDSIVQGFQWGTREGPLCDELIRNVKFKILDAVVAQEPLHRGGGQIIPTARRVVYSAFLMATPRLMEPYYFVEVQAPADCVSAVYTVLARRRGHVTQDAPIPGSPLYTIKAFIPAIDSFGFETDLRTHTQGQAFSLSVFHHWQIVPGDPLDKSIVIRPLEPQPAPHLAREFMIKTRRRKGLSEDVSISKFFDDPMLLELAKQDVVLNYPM
UniProt Q9BUP0: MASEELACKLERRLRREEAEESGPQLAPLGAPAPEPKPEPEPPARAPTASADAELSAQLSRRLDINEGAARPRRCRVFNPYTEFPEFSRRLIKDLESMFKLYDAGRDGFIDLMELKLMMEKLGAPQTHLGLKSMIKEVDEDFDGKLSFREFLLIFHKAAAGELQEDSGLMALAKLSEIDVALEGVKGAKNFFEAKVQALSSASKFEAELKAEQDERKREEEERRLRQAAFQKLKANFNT
UniProt P32519: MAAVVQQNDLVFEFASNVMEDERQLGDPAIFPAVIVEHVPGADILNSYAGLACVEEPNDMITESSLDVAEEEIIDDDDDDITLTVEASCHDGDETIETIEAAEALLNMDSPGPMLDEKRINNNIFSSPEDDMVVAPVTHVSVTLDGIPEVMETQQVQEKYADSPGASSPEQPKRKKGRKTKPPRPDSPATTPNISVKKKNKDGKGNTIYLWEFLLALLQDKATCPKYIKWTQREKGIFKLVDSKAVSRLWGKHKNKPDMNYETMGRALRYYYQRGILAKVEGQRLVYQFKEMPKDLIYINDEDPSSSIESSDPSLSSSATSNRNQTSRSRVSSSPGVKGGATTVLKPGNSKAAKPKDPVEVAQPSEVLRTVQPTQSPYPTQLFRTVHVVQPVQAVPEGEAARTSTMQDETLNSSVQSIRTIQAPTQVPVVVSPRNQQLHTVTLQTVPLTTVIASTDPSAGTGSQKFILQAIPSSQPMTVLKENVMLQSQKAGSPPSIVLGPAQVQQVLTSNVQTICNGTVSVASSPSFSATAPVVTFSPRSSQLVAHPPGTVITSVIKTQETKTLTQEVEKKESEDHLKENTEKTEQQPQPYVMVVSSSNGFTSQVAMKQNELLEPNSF
UniProt Q9H4G0, whole entry, looked up: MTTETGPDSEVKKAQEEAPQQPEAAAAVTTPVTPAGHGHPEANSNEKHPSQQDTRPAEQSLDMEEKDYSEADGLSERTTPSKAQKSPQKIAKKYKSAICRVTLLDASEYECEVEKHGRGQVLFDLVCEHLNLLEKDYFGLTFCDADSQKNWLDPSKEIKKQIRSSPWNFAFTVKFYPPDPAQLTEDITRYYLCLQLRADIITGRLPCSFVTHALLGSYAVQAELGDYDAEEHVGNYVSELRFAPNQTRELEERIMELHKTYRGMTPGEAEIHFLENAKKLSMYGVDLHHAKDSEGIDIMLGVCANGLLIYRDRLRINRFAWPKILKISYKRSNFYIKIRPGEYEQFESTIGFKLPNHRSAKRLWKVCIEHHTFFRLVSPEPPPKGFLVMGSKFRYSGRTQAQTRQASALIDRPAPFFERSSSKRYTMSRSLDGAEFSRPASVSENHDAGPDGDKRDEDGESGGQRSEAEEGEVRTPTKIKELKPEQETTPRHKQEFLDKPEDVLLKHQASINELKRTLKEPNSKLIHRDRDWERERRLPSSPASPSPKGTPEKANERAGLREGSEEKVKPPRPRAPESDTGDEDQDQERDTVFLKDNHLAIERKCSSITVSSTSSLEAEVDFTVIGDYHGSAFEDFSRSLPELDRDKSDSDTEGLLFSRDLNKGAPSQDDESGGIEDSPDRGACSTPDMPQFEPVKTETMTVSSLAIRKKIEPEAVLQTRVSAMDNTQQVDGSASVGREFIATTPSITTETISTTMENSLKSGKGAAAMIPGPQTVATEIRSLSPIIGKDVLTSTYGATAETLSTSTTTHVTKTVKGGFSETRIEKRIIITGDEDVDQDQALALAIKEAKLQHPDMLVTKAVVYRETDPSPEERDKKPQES
UniProt Q8NDI1: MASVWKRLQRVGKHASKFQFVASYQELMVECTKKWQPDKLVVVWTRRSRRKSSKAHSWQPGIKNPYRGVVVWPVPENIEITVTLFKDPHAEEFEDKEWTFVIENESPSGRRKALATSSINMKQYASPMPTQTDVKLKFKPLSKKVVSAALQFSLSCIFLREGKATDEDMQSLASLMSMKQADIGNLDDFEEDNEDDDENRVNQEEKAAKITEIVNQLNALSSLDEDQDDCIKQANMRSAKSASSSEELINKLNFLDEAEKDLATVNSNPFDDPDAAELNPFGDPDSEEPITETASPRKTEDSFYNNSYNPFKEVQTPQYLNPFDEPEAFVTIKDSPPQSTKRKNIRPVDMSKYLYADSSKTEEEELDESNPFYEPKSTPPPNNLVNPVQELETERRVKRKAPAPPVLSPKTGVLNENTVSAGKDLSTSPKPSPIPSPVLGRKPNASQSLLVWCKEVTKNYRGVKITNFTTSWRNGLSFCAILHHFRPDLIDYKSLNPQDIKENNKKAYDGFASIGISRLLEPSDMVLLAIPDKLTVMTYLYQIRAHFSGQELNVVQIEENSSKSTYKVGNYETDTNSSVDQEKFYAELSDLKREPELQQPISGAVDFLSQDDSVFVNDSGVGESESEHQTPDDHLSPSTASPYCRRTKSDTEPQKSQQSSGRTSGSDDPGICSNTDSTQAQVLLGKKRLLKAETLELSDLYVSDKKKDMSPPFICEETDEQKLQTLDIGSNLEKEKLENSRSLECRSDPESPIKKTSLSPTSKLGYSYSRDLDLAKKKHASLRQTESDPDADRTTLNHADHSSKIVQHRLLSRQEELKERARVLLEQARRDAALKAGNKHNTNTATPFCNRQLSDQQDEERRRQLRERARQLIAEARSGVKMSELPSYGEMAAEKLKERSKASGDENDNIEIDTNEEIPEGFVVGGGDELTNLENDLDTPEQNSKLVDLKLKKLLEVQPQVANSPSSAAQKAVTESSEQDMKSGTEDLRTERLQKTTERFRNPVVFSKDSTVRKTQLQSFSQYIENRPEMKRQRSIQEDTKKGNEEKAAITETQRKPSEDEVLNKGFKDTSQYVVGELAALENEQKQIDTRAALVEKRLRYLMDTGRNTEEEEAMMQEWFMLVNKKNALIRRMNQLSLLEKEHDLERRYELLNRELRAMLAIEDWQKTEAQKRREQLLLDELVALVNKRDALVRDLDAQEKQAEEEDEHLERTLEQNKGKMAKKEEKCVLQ
UniProt P55199: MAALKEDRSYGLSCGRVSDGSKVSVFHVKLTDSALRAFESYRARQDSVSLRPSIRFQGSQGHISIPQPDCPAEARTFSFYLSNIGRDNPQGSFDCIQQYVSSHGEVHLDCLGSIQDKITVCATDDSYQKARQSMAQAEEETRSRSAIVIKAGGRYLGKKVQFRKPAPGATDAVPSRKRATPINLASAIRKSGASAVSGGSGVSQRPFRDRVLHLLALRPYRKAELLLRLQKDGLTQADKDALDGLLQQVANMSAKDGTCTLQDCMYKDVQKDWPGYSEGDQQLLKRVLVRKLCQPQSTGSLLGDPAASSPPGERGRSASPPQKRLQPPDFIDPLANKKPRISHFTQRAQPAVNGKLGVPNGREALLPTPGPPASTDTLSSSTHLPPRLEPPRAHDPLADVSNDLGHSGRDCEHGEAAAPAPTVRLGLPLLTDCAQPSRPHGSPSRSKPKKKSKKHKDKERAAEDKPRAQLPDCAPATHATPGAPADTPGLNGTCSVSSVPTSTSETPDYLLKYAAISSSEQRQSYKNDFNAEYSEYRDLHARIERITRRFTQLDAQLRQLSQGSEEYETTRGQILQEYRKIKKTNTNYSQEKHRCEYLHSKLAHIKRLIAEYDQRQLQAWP
UniProt Q12805: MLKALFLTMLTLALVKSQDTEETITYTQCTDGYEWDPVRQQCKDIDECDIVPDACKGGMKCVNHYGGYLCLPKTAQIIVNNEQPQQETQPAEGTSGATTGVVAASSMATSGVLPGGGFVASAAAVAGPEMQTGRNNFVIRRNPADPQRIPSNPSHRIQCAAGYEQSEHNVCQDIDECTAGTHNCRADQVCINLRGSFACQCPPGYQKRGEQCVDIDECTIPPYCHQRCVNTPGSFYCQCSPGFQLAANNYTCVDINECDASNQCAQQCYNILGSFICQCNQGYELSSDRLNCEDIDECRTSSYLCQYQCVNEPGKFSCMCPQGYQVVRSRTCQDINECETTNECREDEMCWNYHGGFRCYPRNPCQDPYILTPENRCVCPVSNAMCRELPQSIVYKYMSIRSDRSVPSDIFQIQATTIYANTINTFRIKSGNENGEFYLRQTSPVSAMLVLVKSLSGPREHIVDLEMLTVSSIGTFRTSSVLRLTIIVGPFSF
UniProt Q14232, whole entry, looked up: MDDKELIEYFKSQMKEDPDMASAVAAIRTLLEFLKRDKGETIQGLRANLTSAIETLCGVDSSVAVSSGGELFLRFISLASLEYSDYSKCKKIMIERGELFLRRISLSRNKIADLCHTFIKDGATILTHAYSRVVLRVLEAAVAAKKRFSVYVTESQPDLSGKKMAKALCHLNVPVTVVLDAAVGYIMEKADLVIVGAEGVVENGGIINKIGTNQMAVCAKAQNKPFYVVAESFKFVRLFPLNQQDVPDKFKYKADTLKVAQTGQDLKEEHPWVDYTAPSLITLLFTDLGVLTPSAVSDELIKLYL
UniProt O75822, whole entry, looked up: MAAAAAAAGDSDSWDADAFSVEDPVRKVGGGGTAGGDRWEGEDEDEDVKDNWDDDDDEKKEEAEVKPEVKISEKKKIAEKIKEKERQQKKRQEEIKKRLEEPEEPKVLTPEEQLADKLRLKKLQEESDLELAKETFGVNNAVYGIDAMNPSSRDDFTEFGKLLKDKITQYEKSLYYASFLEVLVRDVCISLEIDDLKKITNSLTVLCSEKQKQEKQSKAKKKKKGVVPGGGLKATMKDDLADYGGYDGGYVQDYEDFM

[2] = compound: CC1=C(SC2=C1C(=N[C@H](C3=NN=C(N32)C)CC(=O)N)C4=CC=C(C=C4)Cl)C
Procedure, shortened: as §1

[3] = compound: CC1=C2C(=CC=C1)N=C(N(C2=O)C3=CC=CC=C3C)CN4C=NC5=C(N=CN=C54)N
Procedure, shortened: as §1

[4] = compound: Cc1sc2c(c1C)C(c1ccc(Cl)cc1)=N[C@@H](CC(=O)OC(C)(C)C)c1nnc(C)n1-2
Procedure, shortened: as §1

[5] = compound: c1ccc([C@@H]2C[C@H]2NC2CCNCC2)cc1
Procedure, shortened: as §1

Measured: log2 fold change

EFTUD2 (UniProt Q15029)
inactive: [1] 0.042 | [2] -0.001 | [3] -0.016 | [4] 0.009 | [5] 0.032

ELOF1 (UniProt P60002)
inactive: [1] -0.097 | [2] -0.166 | [3] -0.082 | [4] 0.028 | [5] 0.003

EP400 (UniProt Q96L91)
inactive: [2] 0.152 | [5] -0.125

EFHD1 (UniProt Q9BUP0)
inactive: [2] -0.029 | [3] 0.066 | [4] 0.031 | [5] 0.196

ELF1 (UniProt P32519)
inactive: [2] 0.008 | [4] 0.017 | [5] 0.007

EPB41L1 (UniProt Q9H4G0)
inactive: [1] -0.038 | [2] 0.041 | [3] 0.143 | [4] 0.019 | [5] 0.032

EHBP1 (UniProt Q8NDI1)
inactive: [2] -0.163 | [4] 0.041 | [5] 0.229

2 entries picked at random from the list so far, as already listed:
EFHD1 (UniProt Q9BUP0)
inactive: [2] -0.029 | [3] 0.066 | [4] 0.031 | [5] 0.196

EFTUD2 (UniProt Q15029)
inactive: [1] 0.042 | [2] -0.001 | [3] -0.016 | [4] 0.009 | [5] 0.032

(next part)

ELL (UniProt P55199)
inactive: [1] -0.22 | [2] -0.007 | [4] -0.289 | [5] -0.024

EFEMP1 (UniProt Q12805)
inactive: [2] -0.14 | [4] -0.203 | [5] 0.119

EIF2B1 (UniProt Q14232)
inactive: [1] 0.028 | [2] 0.018 | [3] -0.029 | [4] -0.041 | [5] -0.003

EIF3J isoform 2 (UniProt O75822)
inactive: [1] 0.092 | [3] 0.25 | [4] 0.049

Source: the supplement of paper PMC10849652
